According to PMC8273886:
These are yes or no findings as the source states them, for the method shown. Some binding calls cover weakened binding; strength is not graded here.

By UniProt entry, the sequences of proteins in these tests, tags left out.
UniProt P33534: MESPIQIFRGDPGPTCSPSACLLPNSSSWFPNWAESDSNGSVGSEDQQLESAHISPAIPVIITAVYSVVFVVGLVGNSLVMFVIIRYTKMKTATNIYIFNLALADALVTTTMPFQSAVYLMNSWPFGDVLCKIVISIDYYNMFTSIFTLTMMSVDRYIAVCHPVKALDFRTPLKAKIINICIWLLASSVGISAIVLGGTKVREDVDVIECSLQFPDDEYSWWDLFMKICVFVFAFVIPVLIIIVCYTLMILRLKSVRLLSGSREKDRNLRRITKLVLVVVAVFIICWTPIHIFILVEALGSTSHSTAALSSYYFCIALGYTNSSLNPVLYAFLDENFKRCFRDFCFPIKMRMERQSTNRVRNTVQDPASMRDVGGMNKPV

Target: mouse κ-opioid receptor (KOR) tagged with EGFP (mouse) (UniProt P33534)
Assay: radioligand binding; two-point displacement: 1 nM [3H]-diprenorphine with or without 10 μM or 100 nM peptide on membranes of HEK293 cells stably expressing the mouse KOR; only the binder purified

binding | Binder
binds | CTYGGFLRCRIRPKLK (backbone-cyclic (c-); one disulfide bond) [helianorphin-18]
binds | CYGGFLRRCIRPKLK (backbone-cyclic (c-); one disulfide bond) [helianorphin-19]
